This is one part of the list.
Columns and labels:
Assay in all cases: log2 fold change, soluble protein after heating vs DMSO (PISA); higher = thermal stabilisation; K562 cells, 10 uM, 30 min; active = over 0.2 and 3.5 SD of the protein, either way, in both replicates (recomputed)
[1] = compound: COC1=CC=C(C=C1)CN2C=CC3=C2C=C(C=C3)C(=O)NO
Outline: (§1)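 K562 cells at 2×10^6 cells/mL were treated with 10 μM compound for 30 min. Aliquots were heated for 3 min across 48°C-58°C, pooled, and extracted in PBS with 0.5% NP-40 at 4°C; soluble protein was the supernatant after 21,000xg for 90 min. Soluble protein was quantified by TMTpro 16plex LC-MS/MS with channel sums equalised, and reported as log2 fold change in thermal stability against DMSO controls, with values from duplicates.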

The chains behind the UniProt entries cited, without tags or fusion partners. Where a name states a change or a piece, a line headed by the entry shows the natural chain unless it says otherwise.
UniProt P15336: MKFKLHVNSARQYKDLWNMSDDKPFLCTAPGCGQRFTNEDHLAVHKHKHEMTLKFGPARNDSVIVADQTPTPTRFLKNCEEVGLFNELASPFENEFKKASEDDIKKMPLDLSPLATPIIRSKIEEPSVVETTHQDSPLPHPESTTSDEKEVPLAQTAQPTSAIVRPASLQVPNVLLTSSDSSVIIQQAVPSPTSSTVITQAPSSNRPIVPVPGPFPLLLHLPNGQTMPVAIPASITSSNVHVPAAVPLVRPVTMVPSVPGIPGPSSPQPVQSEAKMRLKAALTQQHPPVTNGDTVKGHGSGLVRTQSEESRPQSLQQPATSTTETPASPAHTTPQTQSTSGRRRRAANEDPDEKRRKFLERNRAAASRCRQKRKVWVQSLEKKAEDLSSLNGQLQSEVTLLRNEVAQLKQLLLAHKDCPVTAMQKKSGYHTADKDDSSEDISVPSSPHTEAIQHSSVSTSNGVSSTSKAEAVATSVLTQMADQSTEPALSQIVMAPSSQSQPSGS
UniProt O75787, whole entry, looked up: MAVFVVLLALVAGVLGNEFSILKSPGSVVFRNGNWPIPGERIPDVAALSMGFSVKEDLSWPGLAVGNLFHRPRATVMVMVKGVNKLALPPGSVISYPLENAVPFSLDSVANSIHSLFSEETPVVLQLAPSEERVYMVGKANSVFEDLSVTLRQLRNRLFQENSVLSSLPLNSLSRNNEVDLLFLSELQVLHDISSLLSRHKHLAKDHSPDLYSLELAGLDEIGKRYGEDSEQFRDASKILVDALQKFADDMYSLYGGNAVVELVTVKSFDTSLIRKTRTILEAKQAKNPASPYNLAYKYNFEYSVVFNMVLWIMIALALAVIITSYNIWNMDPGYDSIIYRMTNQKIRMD
UniProt Q96BY7: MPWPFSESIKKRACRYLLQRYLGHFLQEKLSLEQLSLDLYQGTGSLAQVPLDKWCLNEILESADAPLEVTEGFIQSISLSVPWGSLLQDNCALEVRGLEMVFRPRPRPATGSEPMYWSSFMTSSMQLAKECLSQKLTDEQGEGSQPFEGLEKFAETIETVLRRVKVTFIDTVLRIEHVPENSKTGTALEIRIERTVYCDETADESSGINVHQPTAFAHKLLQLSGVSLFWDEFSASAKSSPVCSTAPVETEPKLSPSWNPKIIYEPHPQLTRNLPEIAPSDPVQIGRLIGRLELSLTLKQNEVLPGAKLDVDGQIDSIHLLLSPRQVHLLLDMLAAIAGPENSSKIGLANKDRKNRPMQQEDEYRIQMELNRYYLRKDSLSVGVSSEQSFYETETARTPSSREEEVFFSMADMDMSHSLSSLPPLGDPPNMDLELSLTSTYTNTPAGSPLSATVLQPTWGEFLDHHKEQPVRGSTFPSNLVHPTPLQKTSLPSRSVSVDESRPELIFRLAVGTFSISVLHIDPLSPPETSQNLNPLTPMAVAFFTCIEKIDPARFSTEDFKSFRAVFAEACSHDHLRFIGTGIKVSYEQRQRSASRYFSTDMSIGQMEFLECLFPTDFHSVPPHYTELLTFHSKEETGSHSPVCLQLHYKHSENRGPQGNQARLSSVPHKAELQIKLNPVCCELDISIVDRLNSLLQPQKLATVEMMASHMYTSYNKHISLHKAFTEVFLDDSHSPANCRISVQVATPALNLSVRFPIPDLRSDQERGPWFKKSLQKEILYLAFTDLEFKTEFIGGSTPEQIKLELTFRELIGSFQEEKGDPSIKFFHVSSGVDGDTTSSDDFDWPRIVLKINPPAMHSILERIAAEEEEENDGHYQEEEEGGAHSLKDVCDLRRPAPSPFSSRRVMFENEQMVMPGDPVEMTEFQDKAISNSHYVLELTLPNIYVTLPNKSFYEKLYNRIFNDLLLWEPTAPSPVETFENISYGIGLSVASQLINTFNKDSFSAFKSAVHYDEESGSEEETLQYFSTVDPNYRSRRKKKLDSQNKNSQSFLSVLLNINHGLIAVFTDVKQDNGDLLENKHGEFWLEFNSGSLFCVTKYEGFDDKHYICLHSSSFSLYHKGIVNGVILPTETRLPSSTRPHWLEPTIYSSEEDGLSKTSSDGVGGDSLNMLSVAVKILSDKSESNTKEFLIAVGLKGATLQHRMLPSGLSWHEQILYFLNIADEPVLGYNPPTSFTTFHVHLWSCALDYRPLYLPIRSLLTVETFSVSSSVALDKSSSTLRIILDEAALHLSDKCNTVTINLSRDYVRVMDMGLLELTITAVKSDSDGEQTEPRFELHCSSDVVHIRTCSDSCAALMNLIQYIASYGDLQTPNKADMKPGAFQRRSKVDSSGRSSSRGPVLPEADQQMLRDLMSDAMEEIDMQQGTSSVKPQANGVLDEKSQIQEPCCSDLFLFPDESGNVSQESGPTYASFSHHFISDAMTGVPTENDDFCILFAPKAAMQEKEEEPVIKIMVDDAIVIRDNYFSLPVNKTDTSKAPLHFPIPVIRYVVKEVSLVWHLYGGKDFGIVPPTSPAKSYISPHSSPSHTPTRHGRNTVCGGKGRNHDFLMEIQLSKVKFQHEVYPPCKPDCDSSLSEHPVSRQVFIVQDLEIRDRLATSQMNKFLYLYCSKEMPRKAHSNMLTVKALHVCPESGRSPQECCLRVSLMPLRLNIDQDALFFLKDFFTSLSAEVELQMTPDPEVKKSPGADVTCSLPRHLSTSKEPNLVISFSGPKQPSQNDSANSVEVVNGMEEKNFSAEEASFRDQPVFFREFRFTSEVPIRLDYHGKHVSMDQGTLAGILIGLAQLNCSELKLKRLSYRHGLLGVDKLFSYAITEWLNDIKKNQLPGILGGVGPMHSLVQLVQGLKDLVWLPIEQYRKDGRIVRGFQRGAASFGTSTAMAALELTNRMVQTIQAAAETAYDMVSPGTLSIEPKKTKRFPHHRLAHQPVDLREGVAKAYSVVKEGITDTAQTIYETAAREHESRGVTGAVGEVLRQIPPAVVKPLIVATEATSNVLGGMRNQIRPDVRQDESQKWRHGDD
UniProt P36543, whole entry, looked up: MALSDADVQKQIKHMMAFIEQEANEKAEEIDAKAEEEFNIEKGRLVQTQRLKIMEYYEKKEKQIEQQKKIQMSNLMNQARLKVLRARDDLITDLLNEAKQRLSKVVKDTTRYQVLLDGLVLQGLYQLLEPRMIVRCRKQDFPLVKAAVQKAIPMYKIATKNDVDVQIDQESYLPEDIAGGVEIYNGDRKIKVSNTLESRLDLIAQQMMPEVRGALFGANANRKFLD
UniProt Q9BPX5, whole entry, looked up: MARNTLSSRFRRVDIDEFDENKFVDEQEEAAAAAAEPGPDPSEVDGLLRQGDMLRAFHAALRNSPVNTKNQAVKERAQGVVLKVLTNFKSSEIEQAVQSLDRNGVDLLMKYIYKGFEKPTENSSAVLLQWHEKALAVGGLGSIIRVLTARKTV
UniProt O75348, whole entry, looked up: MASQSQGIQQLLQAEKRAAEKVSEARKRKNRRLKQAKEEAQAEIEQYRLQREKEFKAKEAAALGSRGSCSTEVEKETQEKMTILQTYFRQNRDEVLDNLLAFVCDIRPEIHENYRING
UniProt O94817, whole entry, looked up: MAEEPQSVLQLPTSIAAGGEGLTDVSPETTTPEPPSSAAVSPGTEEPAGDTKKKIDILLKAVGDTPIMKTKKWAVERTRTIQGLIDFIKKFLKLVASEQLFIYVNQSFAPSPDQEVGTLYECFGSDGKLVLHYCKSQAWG
UniProt P56381: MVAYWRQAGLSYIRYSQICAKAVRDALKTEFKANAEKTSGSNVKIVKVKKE
UniProt P20020: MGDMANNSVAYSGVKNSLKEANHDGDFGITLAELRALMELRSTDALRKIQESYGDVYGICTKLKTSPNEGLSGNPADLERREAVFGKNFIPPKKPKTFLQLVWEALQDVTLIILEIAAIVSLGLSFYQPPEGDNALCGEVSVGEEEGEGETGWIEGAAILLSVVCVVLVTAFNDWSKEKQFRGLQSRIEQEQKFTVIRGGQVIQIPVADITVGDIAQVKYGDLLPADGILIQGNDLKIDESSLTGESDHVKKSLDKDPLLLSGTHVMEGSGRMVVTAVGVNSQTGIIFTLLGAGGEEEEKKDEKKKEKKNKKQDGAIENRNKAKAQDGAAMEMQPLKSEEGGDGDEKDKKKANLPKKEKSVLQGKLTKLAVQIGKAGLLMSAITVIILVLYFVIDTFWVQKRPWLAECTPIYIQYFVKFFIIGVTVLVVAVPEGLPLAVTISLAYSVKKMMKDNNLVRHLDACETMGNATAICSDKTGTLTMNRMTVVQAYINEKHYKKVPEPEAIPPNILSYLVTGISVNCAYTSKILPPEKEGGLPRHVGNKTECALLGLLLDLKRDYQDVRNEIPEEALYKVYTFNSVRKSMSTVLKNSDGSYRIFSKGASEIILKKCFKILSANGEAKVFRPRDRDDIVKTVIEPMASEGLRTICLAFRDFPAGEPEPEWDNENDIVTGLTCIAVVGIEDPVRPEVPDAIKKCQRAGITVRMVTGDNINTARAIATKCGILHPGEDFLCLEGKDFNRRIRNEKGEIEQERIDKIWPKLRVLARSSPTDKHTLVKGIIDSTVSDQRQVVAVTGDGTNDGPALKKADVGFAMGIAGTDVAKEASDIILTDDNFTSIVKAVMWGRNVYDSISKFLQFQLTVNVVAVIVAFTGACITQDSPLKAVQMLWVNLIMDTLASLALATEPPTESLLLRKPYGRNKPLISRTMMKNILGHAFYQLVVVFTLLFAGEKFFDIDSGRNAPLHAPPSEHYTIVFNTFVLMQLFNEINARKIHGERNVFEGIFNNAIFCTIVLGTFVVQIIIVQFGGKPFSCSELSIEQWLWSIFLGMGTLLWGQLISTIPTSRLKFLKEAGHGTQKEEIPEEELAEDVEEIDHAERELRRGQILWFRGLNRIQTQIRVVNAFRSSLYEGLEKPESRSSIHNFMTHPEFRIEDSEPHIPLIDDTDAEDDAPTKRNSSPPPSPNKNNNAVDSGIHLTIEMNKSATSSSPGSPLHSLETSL
UniProt Q9NVP2, whole entry, looked up: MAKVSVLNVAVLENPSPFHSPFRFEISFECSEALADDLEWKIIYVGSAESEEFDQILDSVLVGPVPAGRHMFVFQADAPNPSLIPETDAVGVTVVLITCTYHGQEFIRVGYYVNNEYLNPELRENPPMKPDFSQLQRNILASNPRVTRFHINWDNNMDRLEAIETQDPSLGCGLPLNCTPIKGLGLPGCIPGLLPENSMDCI
UniProt O95376: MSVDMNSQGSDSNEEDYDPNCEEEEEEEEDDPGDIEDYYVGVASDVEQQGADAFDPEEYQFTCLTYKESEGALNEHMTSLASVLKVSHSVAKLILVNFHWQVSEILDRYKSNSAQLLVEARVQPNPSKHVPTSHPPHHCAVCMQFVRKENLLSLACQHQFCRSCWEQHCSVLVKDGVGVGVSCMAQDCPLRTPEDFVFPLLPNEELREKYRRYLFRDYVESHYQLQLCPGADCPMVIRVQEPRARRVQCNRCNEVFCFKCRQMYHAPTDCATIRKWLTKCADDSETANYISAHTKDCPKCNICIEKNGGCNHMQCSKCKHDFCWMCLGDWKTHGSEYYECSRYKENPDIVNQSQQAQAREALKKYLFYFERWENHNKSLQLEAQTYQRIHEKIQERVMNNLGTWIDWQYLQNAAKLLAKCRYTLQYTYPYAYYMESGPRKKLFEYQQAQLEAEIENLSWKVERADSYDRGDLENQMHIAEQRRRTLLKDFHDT
UniProt P38606, whole entry, looked up: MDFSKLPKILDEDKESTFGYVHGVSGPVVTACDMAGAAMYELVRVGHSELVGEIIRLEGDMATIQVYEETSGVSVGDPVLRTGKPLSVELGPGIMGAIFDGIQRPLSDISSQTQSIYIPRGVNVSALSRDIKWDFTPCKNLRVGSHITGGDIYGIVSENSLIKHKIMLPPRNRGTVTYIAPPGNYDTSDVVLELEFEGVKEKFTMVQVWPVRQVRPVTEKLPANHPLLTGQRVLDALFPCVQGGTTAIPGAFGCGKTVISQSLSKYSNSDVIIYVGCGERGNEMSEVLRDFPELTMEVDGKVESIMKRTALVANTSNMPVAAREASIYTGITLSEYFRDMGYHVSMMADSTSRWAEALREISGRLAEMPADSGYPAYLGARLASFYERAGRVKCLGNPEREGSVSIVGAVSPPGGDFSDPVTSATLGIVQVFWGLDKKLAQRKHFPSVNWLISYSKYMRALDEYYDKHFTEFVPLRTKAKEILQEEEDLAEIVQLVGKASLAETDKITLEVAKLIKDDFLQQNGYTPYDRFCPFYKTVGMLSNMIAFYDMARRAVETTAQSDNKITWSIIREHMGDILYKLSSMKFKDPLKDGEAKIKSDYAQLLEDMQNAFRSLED
UniProt Q7L266: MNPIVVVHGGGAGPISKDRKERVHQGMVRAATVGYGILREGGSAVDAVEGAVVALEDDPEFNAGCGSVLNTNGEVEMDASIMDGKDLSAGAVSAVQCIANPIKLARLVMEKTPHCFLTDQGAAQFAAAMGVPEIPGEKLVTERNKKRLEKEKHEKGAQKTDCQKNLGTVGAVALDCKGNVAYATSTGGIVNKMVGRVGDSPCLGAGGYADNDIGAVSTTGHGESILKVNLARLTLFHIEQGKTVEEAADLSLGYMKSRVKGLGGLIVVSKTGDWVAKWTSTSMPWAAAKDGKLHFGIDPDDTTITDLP

filanesib = compound: CON(C)C(=O)N1N=C(c2cc(F)ccc2F)S[C@@]1(CCCN)c1ccccc1 [filanesib]
Outline: as §1

zotarolimus = compound: CO[C@H]1C[C@@H]2CC[C@@H](C)[C@@](O)(O2)C(=O)C(=O)N2CCCC[C@H]2C(=O)O[C@H]([C@H](C)C[C@@H]2CC[C@H](n3cnnn3)[C@H](OC)C2)CC(=O)[C@H](C)/C=C(\C)[C@@H](O)[C@@H](OC)C(=O)[C@H](C)C[C@H](C)/C=C/C=C/C=C/1C [zotarolimus]
Outline: as §1

idasanutlin = compound: COc1cc(C(=O)O)ccc1NC(=O)[C@@H]1N[C@@H](CC(C)(C)C)[C@](C#N)(c2ccc(Cl)cc2F)[C@H]1c1cccc(Cl)c1F [idasanutlin]
Outline: as §1

alisertib = compound: COc1cc(Nc2ncc3c(n2)-c2ccc(Cl)cc2C(c2c(F)cccc2OC)=NC3)ccc1C(=O)O [alisertib]
Outline: as §1

[2] = compound: COc1cc2nc(-c3cc(F)ccc3O)nc(N[C@@H]3CNC[C@H]3C(C)(C)O)c2cc1OC
Outline: as §1

gefitinib = compound: COc1cc2ncnc(Nc3ccc(F)c(Cl)c3)c2cc1OCCCN1CCOCC1 [gefitinib]
Outline: as §1

[3] = compound: COc1cccc2cc(-c3nc([C@H]4CC[C@H](C(=O)O)CC4)n4ncnc(N)c34)[nH]c12
Outline: as §1

lapatinib = compound: CS(=O)(=O)CCNCc1ccc(-c2ccc3ncnc(Nc4ccc(OCc5cccc(F)c5)c(Cl)c4)c3c2)o1 [lapatinib]
Outline: as §1

pictilisib = compound: CS(=O)(=O)N1CCN(Cc2cc3nc(-c4cccc5[nH]ncc45)nc(N4CCOCC4)c3s2)CC1 [pictilisib]
Outline: as §1

[4] = compound: CS(=O)(=O)c1ccc(-c2cnc(N)c(C(=O)Nc3ccccc3)n2)cc1
Outline: as §1

crizotinib = compound: C[C@@H](Oc1cc(-c2cnn(C3CCNCC3)c2)cnc1N)c1c(Cl)ccc(F)c1Cl [crizotinib]
Outline: as §1

[5] = compound: C[C@@H]1COCCN1C2=NC(=NC(=C2)C3(CC3)S(=O)(=O)C)C4=C5C=CNC5=CC=C4
Outline: as §1

[6] = compound: C[C@H](C1=CC=C(C=C1)C(=O)NC2=C3C=CNC3=NC=C2)N
Outline: as §1

duvelisib = compound: C[C@H](Nc1ncnc2nc[nH]c12)c1cc2cccc(Cl)c2c(=O)n1-c1ccccc1 [duvelisib]
Outline: as §1

gandotinib = compound: Cc1cc(Nc2cc(CN3CCOCC3)c3nc(C)c(Cc4ccc(Cl)cc4F)n3n2)n[nH]1 [gandotinib]
Outline: as §1

tozasertib = compound: Cc1cc(Nc2cc(N3CCN(C)CC3)nc(Sc3ccc(NC(=O)C4CC4)cc3)n2)n[nH]1 [tozasertib]
Outline: as §1

[7] = compound: Cc1cc(SCc2sc(-c3ccc(C(F)(F)F)cc3)nc2C)ccc1OCC(=O)O
Outline: as §1

doramapimod = compound: Cc1ccc(-n2nc(C(C)(C)C)cc2NC(=O)Nc2ccc(OCCN3CCOCC3)c3ccccc23)cc1 [doramapimod]
Outline: as §1

ispinesib = compound: Cc1ccc(C(=O)N(CCCN)[C@@H](c2nc3cc(Cl)ccc3c(=O)n2Cc2ccccc2)C(C)C)cc1 [ispinesib]
Outline: as §1

Measured: log2 fold change

ATF2 (UniProt P15336)
inactive: [1] -0.045 | filanesib 0.056 | zotarolimus 0.03 | idasanutlin -0.02 | alisertib 0.096 | [2] 0.086 | gefitinib 0.061 | [3] 0.279 | lapatinib -0.009 | pictilisib -0.079 | [4] 0.017 | crizotinib 0.009 | [5] 0.233 | [6] -0.117 | duvelisib -0.12 | gandotinib 0.013 | tozasertib -0.134 | [7] -0.136 | doramapimod 0 | ispinesib 0.004

ATP6AP2 (UniProt O75787)
inactive: [1] 0 | filanesib -0.017 | zotarolimus -0.044 | idasanutlin 0.008 | alisertib -0.056 | [2] -0.027 | gefitinib 0.005 | [3] -0.09 | lapatinib 0.023 | pictilisib -0.013 | [4] 0.026 | crizotinib -0.014 | [5] 0.004 | [6] 0.018 | duvelisib 0.026 | gandotinib 0.002 | tozasertib -0.141 | [7] 0.051 | doramapimod 0.035 | ispinesib -0.054

ASCC3 (UniProt Q8N3C0)
inactive: [1] 0.13 | filanesib -0.004 | zotarolimus 0.053 | idasanutlin 0.109 | alisertib -0.08 | [2] 0.163 | gefitinib -0.001 | [3] -0.133 | lapatinib 0.062 | pictilisib 0.037 | [4] 0.44 | crizotinib -0.046 | [5] -0.338 | [6] 0.389 | duvelisib -0.06 | gandotinib 0.193 | tozasertib 0.062 | [7] 0.017 | doramapimod 0.116 | ispinesib -0.296

ATG2B (UniProt Q96BY7)
inactive: [1] -0.065 | filanesib -0.002 | zotarolimus -0.027 | idasanutlin 0.045 | alisertib -0.024 | [2] -0.043 | gefitinib 0.041 | [3] 0.067 | lapatinib 0.132 | pictilisib 0.04 | [4] -0.001 | crizotinib -0.009 | [5] -0.008 | [6] -0.02 | duvelisib 0.102 | gandotinib -0.082 | tozasertib 0.006 | [7] -0.04 | doramapimod 0.028 | ispinesib -0.047

ATP6V1E1 (UniProt P36543)
inactive: [1] -0.082 | filanesib -0.007 | zotarolimus 0.054 | idasanutlin -0.015 | alisertib -0.011 | [2] -0.091 | gefitinib -0.134 | [3] -0.041 | lapatinib -0.046 | pictilisib 0.012 | [4] 0.015 | crizotinib -0.104 | [5] -0.023 | [6] 0.025 | duvelisib 0.021 | gandotinib 0.044 | tozasertib 0.063 | [7] 0.052 | doramapimod 0.032 | ispinesib -0.003

ARPC5 (UniProt O15511)
inactive: [1] 0.009 | filanesib 0.023 | zotarolimus -0.035 | idasanutlin -0.004 | alisertib 0.006 | [2] 0.04 | gefitinib -0.003 | [3] 0.078 | lapatinib 0.004 | pictilisib 0.043 | [4] -0.006 | crizotinib 0.041 | [5] -0.017 | [6] -0.02 | duvelisib 0.033 | gandotinib 0.035 | tozasertib 0.024 | [7] -0.038 | doramapimod 0.003 | ispinesib 0.053

ARPC5L (UniProt Q9BPX5)
inactive: [1] -0.026 | filanesib 0.052 | zotarolimus 0.032 | idasanutlin -0.062 | alisertib -0.022 | [2] 0.044 | gefitinib 0.02 | [3] 0.051 | lapatinib 0.002 | pictilisib 0.069 | [4] 0.053 | crizotinib 0.066 | [5] -0.015 | [6] -0.098 | duvelisib 0 | gandotinib 0 | tozasertib 0.044 | [7] -0.011 | doramapimod -0.065 | ispinesib 0.082

ATP6V1G1 (UniProt O75348)
inactive: [1] -0.03 | filanesib -0.006 | zotarolimus 0.012 | idasanutlin 0.023 | alisertib -0.158 | [2] -0.035 | gefitinib -0.084 | [3] -0.087 | lapatinib -0.018 | pictilisib 0.041 | [4] -0.066 | crizotinib -0.069 | [5] -0.037 | [6] 0.022 | duvelisib 0.016 | gandotinib 0.037 | tozasertib 0.024 | [7] -0.012 | doramapimod 0.031 | ispinesib -0.119

ATG12 (UniProt O94817)
inactive: [1] 0.04 | filanesib -0.067 | zotarolimus -0.026 | idasanutlin -0.031 | alisertib -0.046 | [2] 0.04 | gefitinib -0.063 | [3] -0.045 | lapatinib 0 | pictilisib -0.122 | [4] 0.034 | crizotinib -0.114 | [5] 0.062 | [6] -0.045 | duvelisib 0.035 | gandotinib -0.201 | tozasertib 0.025 | [7] -0.014 | doramapimod 0.003

ATP5F1E (UniProt P56381)
inactive: [1] 0.012 | filanesib -0.01 | zotarolimus 0 | idasanutlin -0.016 | alisertib -0.065 | [2] -0.003 | gefitinib 0.025 | [3] 0.02 | lapatinib -0.048 | pictilisib -0.04 | [4] -0.003 | crizotinib 0.096 | [5] -0.074 | [6] -0.053 | duvelisib -0.001 | gandotinib 0.042 | tozasertib -0.018 | [7] -0.073 | doramapimod -0.029 | ispinesib 0.065

ATP2B1 isoform 1 (UniProt P20020)
inactive: [1] -0.003 | filanesib 0.073 | zotarolimus -0.046 | idasanutlin -0.021 | alisertib -0.042 | [2] 0.102 | gefitinib 0.024 | [3] 0.068 | lapatinib -0.01 | pictilisib 0.048 | [4] 0.04 | crizotinib 0.167 | [5] 0.025 | [6] -0.134 | duvelisib 0.054 | gandotinib -0.014 | tozasertib -0.046 | [7] -0.074 | doramapimod -0.017 | ispinesib 0.11

ASF1B (UniProt Q9NVP2)
inactive: [1] -0.129 | filanesib 0.359 | zotarolimus 0.04 | idasanutlin -0.101 | alisertib 0.656 | [2] 0.094 | gefitinib 0.004 | [3] -0.301 | lapatinib -0.105 | pictilisib -0.143 | [4] -0.51 | crizotinib -0.148 | [5] -0.147 | [6] 0.128 | duvelisib 0.05 | gandotinib -0.058 | tozasertib -0.08 | [7] 0.028 | doramapimod 0.026 | ispinesib -0.227

ARL5A (UniProt Q9Y689)
inactive: [1] -0.013 | filanesib -0.022 | zotarolimus 0.039 | idasanutlin -0.085 | alisertib -0.086 | [2] 0.054 | gefitinib -0.038 | [3] 0.091 | lapatinib 0.087 | pictilisib 0.009 | [4] 0.077 | crizotinib -0.029 | [5] 0.097 | [6] 0.009 | duvelisib 0.028 | gandotinib 0.159 | tozasertib 0.006 | [7] -0.003 | doramapimod 0.031 | ispinesib -0.064

ARIH2 (UniProt O95376)
inactive: [1] -0.01 | filanesib -0.082 | zotarolimus 0.011 | idasanutlin 0.041 | alisertib -0.055 | [2] -0.014 | gefitinib 0.037 | [3] -0.007 | lapatinib 0.002 | pictilisib -0.029 | [4] 0.023 | crizotinib 0.02 | [5] 0.031 | [6] -0.104 | duvelisib 0.008 | gandotinib 0.028 | tozasertib 0.05 | [7] -0.01 | doramapimod -0.078 | ispinesib 0.081

ATP6V1A (UniProt P38606)
inactive: [1] -0.035 | filanesib -0.013 | zotarolimus -0.003 | idasanutlin 0.036 | alisertib -0.053 | [2] -0.085 | gefitinib -0.099 | [3] -0.015 | lapatinib -0.021 | pictilisib 0 | [4] -0.021 | crizotinib -0.153 | [5] -0.003 | [6] 0.023 | duvelisib 0.008 | gandotinib 0.069 | tozasertib 0.022 | [7] -0.002 | doramapimod 0.016 | ispinesib -0.123

ASRGL1 (UniProt Q7L266)
inactive: [1] 0.011 | filanesib -0.003 | zotarolimus 0.034 | idasanutlin -0.012 | alisertib 0.048 | [2] 0.033 | gefitinib 0.007 | [3] 0.178 | lapatinib -0.008 | pictilisib 0.013 | [4] 0.085 | crizotinib 0.042 | [5] 0.044 | [6] -0.019 | duvelisib 0.022 | gandotinib -0.079 | tozasertib 0.011 | [7] -0.063 | doramapimod -0.005 | ispinesib 0.012
